Assay results: patent publication US20030044768A1
No constants are given. Whether binding was seen depends on the method and setting. Some binding calls cover weakened binding; strength is not graded here.

The chains behind the UniProt entries cited, without tags or fusion partners. Where a name states a change or a piece, a line headed by the entry shows the natural chain unless it says otherwise. Residues count along the entry.
UniProt Q15116: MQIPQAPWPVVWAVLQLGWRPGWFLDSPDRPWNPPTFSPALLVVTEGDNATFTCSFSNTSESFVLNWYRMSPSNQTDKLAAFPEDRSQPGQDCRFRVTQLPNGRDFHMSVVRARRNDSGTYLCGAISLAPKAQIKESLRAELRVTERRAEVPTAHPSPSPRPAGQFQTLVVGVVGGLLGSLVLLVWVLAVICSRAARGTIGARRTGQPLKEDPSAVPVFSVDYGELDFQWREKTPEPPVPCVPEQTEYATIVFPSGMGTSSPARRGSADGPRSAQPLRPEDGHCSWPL
UniProt Q02242, residues 25-167: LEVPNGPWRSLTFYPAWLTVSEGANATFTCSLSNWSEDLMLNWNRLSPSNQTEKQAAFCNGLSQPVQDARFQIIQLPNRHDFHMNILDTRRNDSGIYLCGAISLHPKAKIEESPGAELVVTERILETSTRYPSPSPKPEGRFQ

How the values were obtained:
[1] = molecular target: human B7-4.Ig fusion protein (murine Ig gamma2a) (human; murine) [IgG part: P01863]; test: BIACORE, soluble human B7-4.Ig co-injected with soluble hPD-1.Ig over immobilized mPD-1.Ig, hPD-1.Ig and hCTLA-4.Ig
[2] = molecular target: human B7-4.Ig fusion protein (murine Ig gamma2a) (human; murine) [IgG part: P01863]; test: BIACORE, soluble human B7-4.Ig co-injected with soluble mPD-1.Ig over immobilized mPD-1.Ig, hPD-1.Ig and hCTLA-4.Ig

## human PD-1.Ig (Ig portion not stated in the experiment) (from UniProt Q15116 25-167) (Fc fusion)
[1]
  binding: binds

## murine PD-1-Fc (from UniProt Q02242 25-167) (Fc fusion)
[2]
  binding: binds
